According to article PMC6917717:
These are yes or no findings as the source states them, for the method shown.

Chains of the proteins cited; added tags and fusions are not shown. Lines headed by an entry give the natural chain unless they say otherwise; changes in a name come on top.
UniProt P0AG20: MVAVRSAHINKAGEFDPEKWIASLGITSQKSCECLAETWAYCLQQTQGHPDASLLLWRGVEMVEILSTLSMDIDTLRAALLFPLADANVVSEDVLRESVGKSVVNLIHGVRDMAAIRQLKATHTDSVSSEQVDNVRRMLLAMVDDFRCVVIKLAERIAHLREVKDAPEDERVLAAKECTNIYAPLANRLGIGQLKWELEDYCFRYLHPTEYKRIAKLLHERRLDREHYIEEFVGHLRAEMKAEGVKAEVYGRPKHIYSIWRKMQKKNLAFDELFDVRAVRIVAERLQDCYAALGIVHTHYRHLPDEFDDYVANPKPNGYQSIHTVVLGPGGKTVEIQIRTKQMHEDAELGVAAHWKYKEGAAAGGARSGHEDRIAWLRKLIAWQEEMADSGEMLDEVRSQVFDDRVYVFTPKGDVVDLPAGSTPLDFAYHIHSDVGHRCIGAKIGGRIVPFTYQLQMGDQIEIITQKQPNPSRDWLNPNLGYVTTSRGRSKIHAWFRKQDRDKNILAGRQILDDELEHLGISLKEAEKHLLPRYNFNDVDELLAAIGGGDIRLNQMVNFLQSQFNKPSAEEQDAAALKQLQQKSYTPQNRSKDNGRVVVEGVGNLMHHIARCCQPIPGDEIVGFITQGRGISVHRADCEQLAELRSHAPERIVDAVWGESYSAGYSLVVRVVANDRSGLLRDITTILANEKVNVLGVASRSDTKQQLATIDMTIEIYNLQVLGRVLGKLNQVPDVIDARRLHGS

Biological target: YtfK (bacterial two-hybrid fusion) (E. coli) (UniProt P0ADE2)
Assay: two-hybrid; bacterial two-hybrid (T18 and T25 fragments of B. pertussis adenylate cyclase, pUT18c and pKT25) in cya-deficient E. coli BTH101, 30 °C; X-Gal plates with IPTG and β-galactosidase assay

binding: no binding
Substance: N-terminal enzymatic half of RelA (bacterial two-hybrid fusion) (from UniProt P0AG20) (domain or fragment)
